Data published in PMC3317656.
These are yes or no findings as the source states them, for the method shown. Binding seen in cells or lysates may run through a third protein. Some binding calls cover weakened binding; strength is not graded here. Sequences can lack the tags named with a protein.

By UniProt entry, the sequences of proteins in these tests, tags left out. Residues count along the entry.
UniProt O00238, residues 14-502: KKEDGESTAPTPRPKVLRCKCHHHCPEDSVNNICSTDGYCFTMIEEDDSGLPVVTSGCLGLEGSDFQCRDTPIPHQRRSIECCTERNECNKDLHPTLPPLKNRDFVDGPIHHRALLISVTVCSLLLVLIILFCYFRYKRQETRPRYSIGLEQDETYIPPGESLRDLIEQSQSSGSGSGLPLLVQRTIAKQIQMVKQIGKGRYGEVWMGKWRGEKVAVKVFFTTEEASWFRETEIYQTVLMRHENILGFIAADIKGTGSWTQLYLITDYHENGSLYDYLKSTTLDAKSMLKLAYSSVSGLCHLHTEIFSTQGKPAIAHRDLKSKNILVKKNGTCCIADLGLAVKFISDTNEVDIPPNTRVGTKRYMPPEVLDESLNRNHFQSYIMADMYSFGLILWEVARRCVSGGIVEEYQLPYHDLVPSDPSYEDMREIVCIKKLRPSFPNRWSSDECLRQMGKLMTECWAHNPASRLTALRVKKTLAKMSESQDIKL

T1: Myc-tagged follistatin-like 1 (Fstl1) (mouse) (UniProt Q62356)
T1 sequence: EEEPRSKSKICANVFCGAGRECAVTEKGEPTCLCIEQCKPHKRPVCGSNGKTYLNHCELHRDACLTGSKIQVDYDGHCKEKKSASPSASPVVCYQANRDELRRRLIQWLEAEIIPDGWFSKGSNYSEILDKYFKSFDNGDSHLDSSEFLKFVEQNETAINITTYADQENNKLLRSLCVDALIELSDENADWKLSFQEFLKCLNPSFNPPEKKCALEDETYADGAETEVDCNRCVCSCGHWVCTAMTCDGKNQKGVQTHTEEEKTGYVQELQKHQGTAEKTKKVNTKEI


Columns and labels:
[1] = target: T1, Myc-tagged follistatin-like 1 (Fstl1) (mouse); assay: co-IP; COS7 cells co-transfected with Myc-Fstl1 and HA-tagged receptor, 48 h; whole cell lysate precipitated with anti-c-Myc antibody and Protein A/G agarose at 4°C; blot with anti-HA
[2] = target: T1, Myc-tagged follistatin-like 1 (Fstl1) (mouse); assay: co-IP; HEK293 cells co-transfected with Myc-Fstl1 and HA-tagged receptor, 48 h; whole cell lysate precipitated with anti-c-Myc antibody and Protein A/G agarose at 4°C; blot with anti-HA
[3] = target: T1, Myc-tagged follistatin-like 1 (Fstl1) (mouse); assay: as above; remark: listed apart in the source

Row | binding [1] | binding [2] | binding [3] | Molecule
1 | binds | binds | – | HA-tagged ALK6 (from UniProt O00238 14-502) (receptor)
2 | – | – | no binding | HA-tagged ALK5 (receptor, UniProt P36897 34-503) LQCFCHLCTKDNFTCVTDGLCFVSVTETTDKVIHNSMCIAEIDLIPRDRPFVCAPSSKTGSVTTTYCCNQDHCNKIELPTTVKSSPGLGPVELAAVIAGPVCFVCISLMLMVYICHNRTVIHHRVPNEEDPSLDRPFISEGTTLKDLIYDMTTSGSGSGLPLLVQRTIARTIVLQESIGKGRFGEVWRGKWRGEEVAVKIFSSREERSWFREAEIYQTVMLRHENILGFIAADNKDNGTWTQLWLVSDYHEHGSLFDYLNRYTVTVEGMIKLALSTASGLAHLHMEIVGTQGKPAIAHRDLKSKNILVKKNGTCCIADLGLAVRHDSATDTIDIAPNHRVGTKRYMAPEVLDDSINMKHFESFKRADIYAMGLVFWEIARRCSIGGIHEDYQLPYYDLVPSDPSVEEMRKVVCEQKLRPNIPNRWQSCEALRVMAKIMRECWYANGAARLTALRIKKTLSQLSQQEGIKM
